Reference: paper PMC9166766
Results are given in words; binding and its absence hold for the method and conditions named. Binding can be weak; no strength is given. Where a sequence is shown, tags or fusion partners need not be part of it.

Assays:
Assay in all cases: two-hybrid; mammalian two-hybrid in HEK293T cells: GAL4 DBD-tagged peptides, VP16 activation domain-tagged CNAβ2 and pG5-luc cotransfected for 24 h, luciferase read-out; Fig. 4b with or without 1 μM ionomycin
[1] = target: T1, GAL4 DBD-tagged CABIN1-L-1-1
T1 sequence: PPEITVTPPTP

[2] = target: T2, GAL4 DBD-tagged CABIN1-L-1-2
T2 sequence: PEITVTPPTP

[3] = target: T3, GAL4 DBD-tagged CABIN1-L-1
T3 sequence: FPPEITVTPPTP

Measured: binding

VP16 activation domain-tagged CNAβ2
binds: all assays above
